Patent US12295937B2, “Psychoactive medicines and their use for treating psychiatric and neurological conditions and disorders” (Transcend Therapeutics, Inc., priority 2021, dated 2025)

Assay: Mouse fear extinction paradigm (PTSD model)
Assay type: in vivo
Details: methylone day 3; MBDB day 2
Description: (FIG. 9A) Schematic of experimental design. A single CS-US (tone-shock) pairing on day 1 was followed by 6 CS presentations in a novel context (context B). […] On day 3, the time spent freezing to the CS was quantified. […] (FIG. 9C) No locomotor changes were observed on day 3 (t(26)=1.073, p>0.05). Data are mcan+/−SEM.
FIGS. 10A-10B: MBDB improves fear extinction in a PTSD mouse model. A single CS-US (tone-shock) pairing on day 1 was followed by 6 conditioned stimulus (CS) presentations in a novel context (context B). MBDB or saline vehicle was injected 30 min prior to extinction training on day 2. The time spent freezing to the CS was quantified on day 2. […] Data are mean+/−SEM. N=10 for MBDB group (5 mg/kg, IP) and N=16 for saline control group. **p<0.01 vs. vehicle control group.
Effective PTSD treatments facilitate the disassociation between a traumatic memory and the patient's fear response, making cues for the traumatic memory evoke less of a fear response. This is modeled in the mouse fear extinction paradigm (see FIG. 9A) which takes place over 3 days. […] On day 3 (extinction recall), the mice are “asked” if that tone (CS) still elicits a fearful response, as measured by the time spent freezing when the tone is presented. […]

SMILES	Locomotor activity during fear extinction testing
CCC(Cc1ccc2c(c1)OCO2)NC (racemic) [MBDB, N-methyl-1-(1,3-benzodioxol-5-yl)-2-aminobutane]	small, but significant increase in locomotor activity
CNC(C)C(=O)c1ccc2c(c1)OCO2 (centres unmarked) [Methylone, 3,4-methylenedioxy-N-methylcathinone]	no differences between groups in locomotion
